# Results reported in the supplement of paper PMC8728848.
# Some of the results follow.
# B1: EULS2 M1 (Oryza sativa) (protein)
# chain: MVYCRANPNYAMTARNGAVVLAPANPKDEYQHWIKDMRWSTSIKDEEGYPAFALVNKATGQAIKHSLGQSHPVRLVPYNPEVMDESVLWTESRDVGNGFRCIRMVNNIYLNFDAFHGDKYHGGVRDGTDIVLWKLCEGDNQRWKIQPYYILEQKLISEEDLNSAVDHHHHHH
# Assays:
# Assay in all cases: glycan array binding signal (z-score within array); higher = stronger binding
# Settings in all cases: glycan notation: IUPAC condensed, linker removed
# [1] = molecular target: GlcNAc(b1-4)GlcNAc(b1-4)GlcNAc(b1-4)GlcNAc(b1-4)GlcNAc(b1-4)GlcNAc
# In short: (§1)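 Glycan array data came from 3228 arrays in the Consortium for Functional Glycomics database, and only arrays with an available protein sequence were kept. Glycan names were put into IUPAC-condensed notation, and columns mapping to the same glycan were averaged. The binding signal is a within-array Z-score, averaged across arrays of one protein sequence run at different concentrations or buffers and across linkers. A negative Z-score can be read as non-binding.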
# [2] = molecular target: GlcNAc(b1-4)[GlcNAc(b1-6)]GalNAc
# In short: as §1
# [3] = molecular target: GlcNAc(b1-6)Gal(b1-4)GlcNAc
# In short: as §1
# GlcNAc(b1-6)GalNAc = molecular target: GlcNAc(b1-6)GalNAc
# In short: as §1
# [4] = molecular target: GlcNAc6S(b1-3)Gal(b1-4)GlcNAc
# In short: as §1
# Kdn(a2-3)Gal(b1-3)GalNAc = molecular target: Kdn(a2-3)Gal(b1-3)GalNAc
# In short: as §1
# Kdn(a2-3)Gal(b1-3)GlcNAc = molecular target: Kdn(a2-3)Gal(b1-3)GlcNAc
# In short: as §1
# Kdn(a2-3)Gal(b1-4)Glc = molecular target: Kdn(a2-3)Gal(b1-4)Glc
# In short: as §1
# Kdn(a2-3)Gal(b1-4)GlcNAc = molecular target: Kdn(a2-3)Gal(b1-4)GlcNAc
# In short: as §1
# [5] = molecular target: Kdn(a2-3)Gal(b1-4)[Fuc(a1-3)]GlcNAc
# In short: as §1
# Kdn(a2-6)Gal(b1-4)GlcNAc = molecular target: Kdn(a2-6)Gal(b1-4)GlcNAc
# In short: as §1
# [6] = molecular target: Man(a1-2)Man(a1-2)Man(a1-3)Man
# In short: as §1
# [7] = molecular target: Man(a1-2)Man(a1-2)Man(a1-6)[Man(a1-3)]Man
# In short: as §1
# Man(a1-2)Man(a1-3)Man = molecular target: Man(a1-2)Man(a1-3)Man
# In short: as §1
# [8] = molecular target: Man(a1-2)Man(a1-3)[Man(a1-2)Man(a1-6)]Man
# In short: as §1
# [9] = molecular target: Man(a1-2)Man(a1-3)[Man(a1-2)Man(a1-6)]Man(a1-6)[Man(a1-2)Man(a1-2)Man(a1-3)]Man
# In short: as §1
# [10] = molecular target: Man(a1-2)Man(a1-3)[Man(a1-2)Man(a1-6)]Man(a1-6)[Man(a1-2)Man(a1-2)Man(a1-3)]Man(b1-4)GlcNAc(b1-4)GlcNAc
# In short: as §1
# [11] = molecular target: Man(a1-2)Man(a1-3)[Man(a1-6)]Man(a1-6)[Man(a1-2)Man(a1-3)]Man(b1-4)GlcNAc(b1-4)GlcNAc
# In short: as §1
# [12] = molecular target: Man(a1-2)Man(a1-6)[Man(a1-3)]Man(a1-6)[Man(a1-2)Man(a1-2)Man(a1-3)]Man
# In short: as §1
# [13] = molecular target: Man(a1-2)Man(a1-6)[Man(a1-3)]Man(a1-6)[Man(a1-2)Man(a1-2)Man(a1-3)]Man(b1-4)GlcNAc(b1-4)GlcNAc
# In short: as §1
# Man(a1-3)[Man(a1-6)]Man = molecular target: Man(a1-3)[Man(a1-6)]Man
# In short: as §1
# [14] = molecular target: Man(a1-3)[Man(a1-6)]Man(a1-6)[Man(a1-2)Man(a1-3)]Man(b1-4)GlcNAc(b1-4)GlcNAc
# In short: as §1
# [15] = molecular target: Man(a1-3)[Man(a1-6)]Man(a1-6)[Man(a1-3)]Man
# In short: as §1
# [16] = molecular target: Man(a1-3)[Man(a1-6)]Man(a1-6)[Man(a1-3)]Man(b1-4)GlcNAc(b1-4)GlcNAc
# In short: as §1
# [17] = molecular target: Man(a1-3)[Man(a1-6)]Man(b1-4)GlcNAc(b1-4)GlcNAc
# In short: as §1
# [18] = molecular target: Man(a1-3)[Man(a1-6)]Man(b1-4)GlcNAc(b1-4)[Fuc(a1-6)]GlcNAc
# In short: as §1
# Man(a1-6)Man = molecular target: Man(a1-6)Man
# In short: as §1
# Man(b1-4)GlcNAc = molecular target: Man(b1-4)GlcNAc
# In short: as §1
# MurNAc(b1-4)GlcNAc = molecular target: MurNAc(b1-4)GlcNAc
# In short: as §1
# Neu5Ac(a2-3)Gal = molecular target: Neu5Ac(a2-3)Gal
# In short: as §1
# [19] = molecular target: Neu5Ac(a2-3)Gal(b1-3)GalNAc
# In short: as §1
# [20] = molecular target: Neu5Ac(a2-3)Gal(b1-3)GalNAc(b1-3)Gal(a1-4)Gal(b1-4)Glc
# In short: as §1
# [21] = molecular target: Neu5Ac(a2-3)Gal(b1-3)GalNAc(b1-4)[Neu5Ac(a2-3)]Gal(b1-4)Glc
# In short: as §1
# [22] = molecular target: Neu5Ac(a2-3)Gal(b1-3)GalNAc(b1-4)[Neu5Ac(a2-8)Neu5Ac(a2-3)]Gal(b1-4)Glc
# In short: as §1
# [23] = molecular target: Neu5Ac(a2-3)Gal(b1-3)GalNAc6S
# In short: as §1
# [24] = molecular target: Neu5Ac(a2-3)Gal(b1-3)GlcNAc
# In short: as §1
# [25] = molecular target: Neu5Ac(a2-3)Gal(b1-3)GlcNAc(b1-2)Man
# In short: as §1
# [26] = molecular target: Neu5Ac(a2-3)Gal(b1-3)GlcNAc(b1-2)Man(a1-3)[GlcNAc(b1-4)][Neu5Ac(a2-3)Gal(b1-3)GlcNAc(b1-2)Man(a1-6)]Man(b1-4)GlcNAc(b1-4)GlcNAc
# In short: as §1
# [27] = molecular target: Neu5Ac(a2-3)Gal(b1-3)GlcNAc(b1-2)Man(a1-3)[Neu5Ac(a2-3)Gal(b1-3)GlcNAc(b1-2)Man(a1-6)]Man(b1-4)GlcNAc(b1-4)GlcNAc
# In short: as §1
# [28] = molecular target: Neu5Ac(a2-3)Gal(b1-3)GlcNAc(b1-3)Gal(b1-3)GlcNAc
# In short: as §1
# [29] = molecular target: Neu5Ac(a2-3)Gal(b1-3)GlcNAc(b1-3)Gal(b1-4)GlcNAc
# In short: as §1
# [30] = molecular target: Neu5Ac(a2-3)Gal(b1-3)GlcNAc(b1-3)GalNAc
# In short: as §1
# [31] = molecular target: Neu5Ac(a2-3)Gal(b1-3)GlcNAc(b1-4)Gal(b1-4)Glc
# In short: as §1
# [32] = molecular target: Neu5Ac(a2-3)Gal(b1-3)GlcNAc(b1-6)GalNAc
# In short: as §1
# [33] = molecular target: Neu5Ac(a2-3)Gal(b1-3)GlcNAc6S
# In short: as §1
binder,measurement,setting,value
B1,glycan array binding signal (z-score),[1],-0.056
same,glycan array binding signal (z-score),[2],0.208
same,glycan array binding signal (z-score),[3],-1.13
same,glycan array binding signal (z-score),GlcNAc(b1-6)GalNAc,-0.67
same,glycan array binding signal (z-score),[4],-0.612
same,glycan array binding signal (z-score),Kdn(a2-3)Gal(b1-3)GalNAc,-0.02
same,glycan array binding signal (z-score),Kdn(a2-3)Gal(b1-3)GlcNAc,-0.695
same,glycan array binding signal (z-score),Kdn(a2-3)Gal(b1-4)Glc,-0.238
same,glycan array binding signal (z-score),Kdn(a2-3)Gal(b1-4)GlcNAc,-0.824
same,glycan array binding signal (z-score),[5],-0.345
same,glycan array binding signal (z-score),Kdn(a2-6)Gal(b1-4)GlcNAc,-0.713
same,glycan array binding signal (z-score),[6],-0.701
same,glycan array binding signal (z-score),[7],-0.128
same,glycan array binding signal (z-score),Man(a1-2)Man(a1-3)Man,0.378
same,glycan array binding signal (z-score),[8],0.091
same,glycan array binding signal (z-score),[9],-0.01
same,glycan array binding signal (z-score),[10],-0.176
same,glycan array binding signal (z-score),[11],0.455
same,glycan array binding signal (z-score),[12],0.159
same,glycan array binding signal (z-score),[13],0.721
same,glycan array binding signal (z-score),Man(a1-3)[Man(a1-6)]Man,-0.324
same,glycan array binding signal (z-score),[14],0.337
same,glycan array binding signal (z-score),[15],1.59
same,glycan array binding signal (z-score),[16],0.327
same,glycan array binding signal (z-score),[17],3.41
same,glycan array binding signal (z-score),[18],0.377
same,glycan array binding signal (z-score),Man(a1-6)Man,3.16
same,glycan array binding signal (z-score),Man(b1-4)GlcNAc,-0.283
same,glycan array binding signal (z-score),MurNAc(b1-4)GlcNAc,-0.581
same,glycan array binding signal (z-score),Neu5Ac(a2-3)Gal,-1.24
same,glycan array binding signal (z-score),[19],-0.371
same,glycan array binding signal (z-score),[20],-0.132
same,glycan array binding signal (z-score),[21],0.474
same,glycan array binding signal (z-score),[22],-0.657
same,glycan array binding signal (z-score),[23],1.3
same,glycan array binding signal (z-score),[24],-0.972
same,glycan array binding signal (z-score),[25],0.098
same,glycan array binding signal (z-score),[26],-0.389
same,glycan array binding signal (z-score),[27],0.791
same,glycan array binding signal (z-score),[28],-1.01
same,glycan array binding signal (z-score),[29],-0.217
same,glycan array binding signal (z-score),[30],-0.164
same,glycan array binding signal (z-score),[31],0.491
same,glycan array binding signal (z-score),[32],0.348
same,glycan array binding signal (z-score),[33],-0.239

# Reformatted as tab-separated lines: entries from further up
binder	measurement	setting	value
B1	glycan array binding signal (z-score)	[2]	0.208
same	glycan array binding signal (z-score)	[16]	0.327
same	glycan array binding signal (z-score)	Man(a1-6)Man	3.16
